{"source": "PubChem BioAssay AID1904 (GNF, 2009)", "purpose": "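Knockdowns that alter circadian period or oscillation amplitude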 (follow-up of hits)", "cells": "human U2OS osteosarcoma cells stably expressing a destabilised luciferase driven by the Bmal1 promoter", "knock-down reagent": "siRNA pair against human genes, 12.5 nM (two siRNAs, 0.5 pmol each, per well)", "timing": "about 3 days after transfection, then luminescence recorded for about 4 days", "measured": "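Bmal1 reporter light output measured every 2 hours over several days, detrended, then fitted to give period and amplitude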", "rule for the call": "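Active when retesting with individual siRNAs reproduced the period or amplitude change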", "meaning of the calls": "active = confirmed by single siRNAs; inactive = not confirmed", "note": "Only reagents picked out of a larger screen are listed. 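Lists only primary-screen hits; phenotype classes come from fitted traces, and the underlying luminescence values are not given.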 Unmarked entries are inactive."}
{"gene symbol":"SRPRB","PubChem SID":"SID85103404","clock phenotype class":"longer clock period; seen with two independent siRNA pairs for the gene (active)","confirmed with single siRNAs":"phenotype reproduced by individual siRNAs"}
{"gene symbol":"SRPRB","PubChem SID":"SID85110627","clock phenotype class":"longer clock period; seen with two independent siRNA pairs for the gene (active)","confirmed with single siRNAs":"phenotype reproduced by individual siRNAs"}
{"gene symbol":"MYOC","PubChem SID":"SID85100671","clock phenotype class":"longer clock period; seen with two independent siRNA pairs for the gene (active)","confirmed with single siRNAs":"phenotype reproduced by individual siRNAs"}
{"gene symbol":"MYOC","PubChem SID":"SID85107894","clock phenotype class":"longer clock period; seen with two independent siRNA pairs for the gene (active)","confirmed with single siRNAs":"phenotype reproduced by individual siRNAs"}
{"gene symbol":"FKSG2","PubChem SID":"SID85103288","clock phenotype class":"longer clock period; seen with two independent siRNA pairs for the gene (active)","confirmed with single siRNAs":"phenotype reproduced by individual siRNAs"}
{"gene symbol":"FKSG2","PubChem SID":"SID85110511","clock phenotype class":"longer clock period; seen with two independent siRNA pairs for the gene (active)","confirmed with single siRNAs":"phenotype reproduced by individual siRNAs"}
{"gene symbol":"CAD","PubChem SID":"SID85099108","clock phenotype class":"higher rhythm amplitude; seen with one siRNA pair in duplicate wells (active)","confirmed with single siRNAs":"phenotype reproduced by individual siRNAs"}
{"gene symbol":"CAD","PubChem SID":"SID85106331","clock phenotype class":"higher rhythm amplitude; seen with one siRNA pair in duplicate wells (active)","confirmed with single siRNAs":"phenotype reproduced by individual siRNAs"}
{"gene symbol":"NCL","PubChem SID":"SID85100515","clock phenotype class":"longer clock period; seen with two independent siRNA pairs for the gene (active)","confirmed with single siRNAs":"phenotype reproduced by individual siRNAs"}
{"gene symbol":"NCL","PubChem SID":"SID85107738","clock phenotype class":"longer clock period; seen with two independent siRNA pairs for the gene (active)","confirmed with single siRNAs":"phenotype reproduced by individual siRNAs"}
{"gene symbol":"PRKCI","PubChem SID":"SID85105515","clock phenotype class":"longer clock period; seen with two independent siRNA pairs for the gene (active)","confirmed with single siRNAs":"phenotype reproduced by individual siRNAs"}
{"gene symbol":"PRKCI","PubChem SID":"SID85112738","clock phenotype class":"longer clock period; seen with two independent siRNA pairs for the gene (active)","confirmed with single siRNAs":"phenotype reproduced by individual siRNAs"}
{"gene symbol":"GMNN","PubChem SID":"SID85103006","clock phenotype class":"higher rhythm amplitude; seen with one siRNA pair in duplicate wells (inconclusive)","confirmed with single siRNAs":"phenotype not reproduced by individual siRNAs"}
{"gene symbol":"GMNN","PubChem SID":"SID85110229","clock phenotype class":"higher rhythm amplitude; seen with one siRNA pair in duplicate wells (inconclusive)","confirmed with single siRNAs":"phenotype not reproduced by individual siRNAs"}
{"gene symbol":"MAPRE2","PubChem SID":"SID85102213","clock phenotype class":"shorter clock period; seen with one siRNA pair in duplicate wells (inconclusive)","confirmed with single siRNAs":"phenotype not reproduced by individual siRNAs"}
{"gene symbol":"MAPRE2","PubChem SID":"SID85109436","clock phenotype class":"shorter clock period; seen with one siRNA pair in duplicate wells (inconclusive)","confirmed with single siRNAs":"phenotype not reproduced by individual siRNAs"}
{"gene symbol":"SLC32A1","PubChem SID":"SID85120244","clock phenotype class":"longer clock period; seen with two independent siRNA pairs for the gene (active)","confirmed with single siRNAs":"phenotype reproduced by individual siRNAs"}
{"gene symbol":"SLC32A1","PubChem SID":"SID85131068","clock phenotype class":"longer clock period; seen with two independent siRNA pairs for the gene (active)","confirmed with single siRNAs":"phenotype reproduced by individual siRNAs"}
{"gene symbol":"UBE2B","PubChem SID":"SID85101445","clock phenotype class":"longer clock period; seen with two independent siRNA pairs for the gene (active)","confirmed with single siRNAs":"phenotype reproduced by individual siRNAs"}
{"gene symbol":"UBE2B","PubChem SID":"SID85108668","clock phenotype class":"longer clock period; seen with two independent siRNA pairs for the gene (active)","confirmed with single siRNAs":"phenotype reproduced by individual siRNAs"}
{"gene symbol":"TNK2","PubChem SID":"SID85105827","clock phenotype class":"longer clock period; seen with two independent siRNA pairs for the gene (active)","confirmed with single siRNAs":"phenotype reproduced by individual siRNAs"}
{"gene symbol":"TNK2","PubChem SID":"SID85113050","clock phenotype class":"longer clock period; seen with two independent siRNA pairs for the gene (active)","confirmed with single siRNAs":"phenotype reproduced by individual siRNAs"}
{"gene symbol":"HRPT2","PubChem SID":"SID85103752","clock phenotype class":"longer clock period; seen with two independent siRNA pairs for the gene (active)","confirmed with single siRNAs":"phenotype reproduced by individual siRNAs"}
{"gene symbol":"HRPT2","PubChem SID":"SID85110975","clock phenotype class":"longer clock period; seen with two independent siRNA pairs for the gene (active)","confirmed with single siRNAs":"phenotype reproduced by individual siRNAs"}
{"gene symbol":"ABL1","PubChem SID":"SID85105330","clock phenotype class":"shorter clock period; seen with two independent siRNA pairs for the gene (active)","confirmed with single siRNAs":"phenotype reproduced by individual siRNAs"}
{"gene symbol":"ABL1","PubChem SID":"SID85112553","clock phenotype class":"shorter clock period; seen with two independent siRNA pairs for the gene (active)","confirmed with single siRNAs":"phenotype reproduced by individual siRNAs"}
{"gene symbol":"BDP1","PubChem SID":"SID85117676","clock phenotype class":"longer clock period; seen with two independent siRNA pairs for the gene (active)","confirmed with single siRNAs":"phenotype reproduced by individual siRNAs"}
{"gene symbol":"BDP1","PubChem SID":"SID85128500","clock phenotype class":"longer clock period; seen with two independent siRNA pairs for the gene (active)","confirmed with single siRNAs":"phenotype reproduced by individual siRNAs"}
{"gene symbol":"USP1","PubChem SID":"SID85114684","clock phenotype class":"longer clock period; seen with two independent siRNA pairs for the gene (active)","confirmed with single siRNAs":"phenotype reproduced by individual siRNAs"}
{"gene symbol":"USP1","PubChem SID":"SID85125508","clock phenotype class":"longer clock period; seen with two independent siRNA pairs for the gene (active)","confirmed with single siRNAs":"phenotype reproduced by individual siRNAs"}
{"gene symbol":"DDX3X","PubChem SID":"SID85122453","clock phenotype class":"longer clock period; seen with two independent siRNA pairs for the gene (active)","confirmed with single siRNAs":"phenotype reproduced by individual siRNAs"}
{"gene symbol":"BCR","PubChem SID":"SID85105494","clock phenotype class":"shorter clock period; seen with two independent siRNA pairs for the gene (active)","confirmed with single siRNAs":"phenotype reproduced by individual siRNAs"}
{"gene symbol":"BCR","PubChem SID":"SID85112717","clock phenotype class":"shorter clock period; seen with two independent siRNA pairs for the gene (active)","confirmed with single siRNAs":"phenotype reproduced by individual siRNAs"}
{"gene symbol":"TREM2","PubChem SID":"SID85102910","clock phenotype class":"higher rhythm amplitude; seen with one siRNA pair in duplicate wells (inconclusive)","confirmed with single siRNAs":"phenotype not reproduced by individual siRNAs"}
{"gene symbol":"TREM2","PubChem SID":"SID85110133","clock phenotype class":"higher rhythm amplitude; seen with one siRNA pair in duplicate wells (inconclusive)","confirmed with single siRNAs":"phenotype not reproduced by individual siRNAs"}
{"gene symbol":"R29124_1","PubChem SID":"SID85119525","clock phenotype class":"shorter clock period; seen with two independent siRNA pairs for the gene (active)","confirmed with single siRNAs":"phenotype reproduced by individual siRNAs"}
{"gene symbol":"R29124_1","PubChem SID":"SID85130349","clock phenotype class":"shorter clock period; seen with two independent siRNA pairs for the gene (active)","confirmed with single siRNAs":"phenotype reproduced by individual siRNAs"}
{"gene symbol":"GPR17","PubChem SID":"SID85104756","clock phenotype class":"longer clock period; seen with two independent siRNA pairs for the gene (active)","confirmed with single siRNAs":"phenotype reproduced by individual siRNAs"}
{"gene symbol":"GPR17","PubChem SID":"SID85111979","clock phenotype class":"longer clock period; seen with two independent siRNA pairs for the gene (active)","confirmed with single siRNAs":"phenotype reproduced by individual siRNAs"}
{"gene symbol":"IF","PubChem SID":"SID85099927","clock phenotype class":"longer clock period; seen with two independent siRNA pairs for the gene (active)","confirmed with single siRNAs":"phenotype reproduced by individual siRNAs"}
{"gene symbol":"IF","PubChem SID":"SID85107150","clock phenotype class":"longer clock period; seen with two independent siRNA pairs for the gene (active)","confirmed with single siRNAs":"phenotype reproduced by individual siRNAs"}
